Measured data: PubChem BioAssay AID1259322 (Peter MacCallum Cancer Centre, 2017)

- Purpose: 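Kinases required for PAR2 to open the TRPV4 channel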 (follow-up of hits)
- Cell system: human HEK293 cells with stable inducible TRPV4
- Reagents: single siRNA against human genes
- Challenge: PAR2 activation; agonist identity, dose and timing not stated
- Measurement: 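Fura-2 imaging of cytosolic calcium over time, first peak marking PAR2 and later plateau marking TRPV4 opening; both relative to mock on each plate, mean of two plates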
- Direction: TRPV4 plateau calcium, % of mock: higher = stronger PAR2-dependent TRPV4 calcium entry; PAR2 peak calcium, % of mock: higher = stronger direct PAR2 calcium response
- Call rule: 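a knock-down counts as active when the PAR2 peak exceeds 79% of mock yet the TRPV4 plateau is below 90% of mock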
Here is an unselected part of 208 reagents. 72 of them (35%) count as active. 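Four separate siRNAs per kinase gene, 52 genes in all; PAR2 agonist unnamed, with its dose and timing unknown.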 Reagents against one gene are numbered here. The record does not give: the amount of reagent, the time to read-out.

For PTK2 (GeneID 5747) #1, what does the deposit list?
TRPV4 plateau calcium, % of mock: 105; PAR2 peak calcium, % of mock: 95.5; call: inactive

For PTK2 (GeneID 5747) #2, what was measured?
TRPV4 plateau calcium, % of mock: 95.6; PAR2 peak calcium, % of mock: 99.5; call: inactive

How did the screen score PTK2 (GeneID 5747) #3?
TRPV4 plateau calcium, % of mock: 84.6; PAR2 peak calcium, % of mock: 85.1; call: active

With PTK2 (GeneID 5747) #4, what was measured?
TRPV4 plateau calcium, % of mock: 106; PAR2 peak calcium, % of mock: 96.7; call: inactive

What did the screen give for NEK7 (GeneID 140609) #1?
TRPV4 plateau calcium, % of mock: 86.2; PAR2 peak calcium, % of mock: 83.5; call: active

Which result is listed for NEK7 (GeneID 140609) #2?
TRPV4 plateau calcium, % of mock: 94.5; PAR2 peak calcium, % of mock: 99.8; call: inactive

With NEK7 (GeneID 140609) #3, what does the deposit list?
TRPV4 plateau calcium, % of mock: 102; PAR2 peak calcium, % of mock: 99.3; call: inactive

How did the screen score NEK7 (GeneID 140609) #4?
TRPV4 plateau calcium, % of mock: 71; PAR2 peak calcium, % of mock: 66.5; call: inactive

With CAMKK1 (GeneID 84254) #1, what does the deposit list?
TRPV4 plateau calcium, % of mock: 91.7; PAR2 peak calcium, % of mock: 99.9; call: inactive

For CAMKK1 (GeneID 84254) #2, what does the deposit list?
TRPV4 plateau calcium, % of mock: 84.7; PAR2 peak calcium, % of mock: 88; call: active

With CAMKK1 (GeneID 84254) #3, how do the results read?
TRPV4 plateau calcium, % of mock: 95.5; PAR2 peak calcium, % of mock: 96.6; call: inactive

With CAMKK1 (GeneID 84254) #4, what was measured?
TRPV4 plateau calcium, % of mock: 85.9; PAR2 peak calcium, % of mock: 110; call: active

What did the screen give for FYN (GeneID 2534) #1?
TRPV4 plateau calcium, % of mock: 93.8; PAR2 peak calcium, % of mock: 103; call: inactive

With FYN (GeneID 2534) #2, what was measured?
TRPV4 plateau calcium, % of mock: 78.5; PAR2 peak calcium, % of mock: 92.7; call: active

How did the screen score FYN (GeneID 2534) #3?
TRPV4 plateau calcium, % of mock: 70.6; PAR2 peak calcium, % of mock: 75.5; call: inactive

Which result is listed for FYN (GeneID 2534) #4?
TRPV4 plateau calcium, % of mock: 75.6; PAR2 peak calcium, % of mock: 70.2; call: inactive

For PLK4 (GeneID 10733) #1, what was measured?
TRPV4 plateau calcium, % of mock: 98.7; PAR2 peak calcium, % of mock: 94.4; call: inactive

With PLK4 (GeneID 10733) #2, how do the results read?
TRPV4 plateau calcium, % of mock: 121; PAR2 peak calcium, % of mock: 121; call: inactive

With PLK4 (GeneID 10733) #3, what was measured?
TRPV4 plateau calcium, % of mock: 106; PAR2 peak calcium, % of mock: 114; call: inactive

For PLK4 (GeneID 10733) #4, what does the deposit list?
TRPV4 plateau calcium, % of mock: 83.6; PAR2 peak calcium, % of mock: 88.3; call: active

What is on record for SRMS (GeneID 6725) #1?
TRPV4 plateau calcium, % of mock: 70.3; PAR2 peak calcium, % of mock: 80.1; call: active

For SRMS (GeneID 6725) #2, what does the deposit list?
TRPV4 plateau calcium, % of mock: 91.3; PAR2 peak calcium, % of mock: 82.5; call: inactive

For SRMS (GeneID 6725) #3, how do the results read?
TRPV4 plateau calcium, % of mock: 93; PAR2 peak calcium, % of mock: 107; call: inactive

For SRMS (GeneID 6725) #4, what does the deposit list?
TRPV4 plateau calcium, % of mock: 75.2; PAR2 peak calcium, % of mock: 93.3; call: active

What is on record for SGK3 (GeneID 23678) #1?
TRPV4 plateau calcium, % of mock: 94.9; PAR2 peak calcium, % of mock: 104; call: inactive

What is on record for SGK3 (GeneID 23678) #2?
TRPV4 plateau calcium, % of mock: 97; PAR2 peak calcium, % of mock: 88.7; call: inactive

What did the screen give for SGK3 (GeneID 23678) #3?
TRPV4 plateau calcium, % of mock: 80.3; PAR2 peak calcium, % of mock: 89.9; call: active

How did the screen score SGK3 (GeneID 23678) #4?
TRPV4 plateau calcium, % of mock: 78.7; PAR2 peak calcium, % of mock: 76; call: inactive

2 of these entries, reformatted.
Target gene | reagent | TRPV4 plateau calcium, % of mock | PAR2 peak calcium, % of mock | call
PLK4 (GeneID 10733) | 2 | 121 | 121 | inactive
PLK4 (GeneID 10733) | 3 | 106 | 114 | inactive
